## Primary screen of a compound library

Amino acid sequences for entries named in this document (tags omitted).
UniProt E9BF75, entry or part of it: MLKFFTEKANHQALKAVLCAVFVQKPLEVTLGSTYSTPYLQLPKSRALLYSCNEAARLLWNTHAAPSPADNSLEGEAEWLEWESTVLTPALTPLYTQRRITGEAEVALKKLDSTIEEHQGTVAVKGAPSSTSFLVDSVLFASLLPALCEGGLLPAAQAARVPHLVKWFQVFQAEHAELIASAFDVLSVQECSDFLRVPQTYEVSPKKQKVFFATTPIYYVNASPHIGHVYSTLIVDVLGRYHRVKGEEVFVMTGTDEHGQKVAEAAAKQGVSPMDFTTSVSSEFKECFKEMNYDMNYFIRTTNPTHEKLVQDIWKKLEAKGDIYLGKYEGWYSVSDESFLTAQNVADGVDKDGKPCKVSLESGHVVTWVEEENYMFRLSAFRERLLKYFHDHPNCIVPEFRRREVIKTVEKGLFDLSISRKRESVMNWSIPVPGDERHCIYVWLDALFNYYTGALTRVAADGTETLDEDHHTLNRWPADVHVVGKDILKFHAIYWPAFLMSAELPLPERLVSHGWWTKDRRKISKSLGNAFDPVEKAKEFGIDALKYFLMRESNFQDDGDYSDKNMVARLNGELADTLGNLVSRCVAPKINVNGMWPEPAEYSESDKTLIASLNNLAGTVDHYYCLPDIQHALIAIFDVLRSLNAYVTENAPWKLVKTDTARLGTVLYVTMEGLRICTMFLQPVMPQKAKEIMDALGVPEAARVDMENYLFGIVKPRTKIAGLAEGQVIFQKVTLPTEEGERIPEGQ

Measurements from “University of Dundee, Small-Polar-MMV Screening Library” (2021), ChEMBL document CHEMBL3988442.

A: 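Assay on Mycobacterium tuberculosis, filed only as a heat shock assay from Cornell; the read-out is not stated. The concentration is filed as 10 mM, unlikely as a test dose, so the dose is not known. Higher reads as stronger inhibition (inferred: compounds with an IC50 in retests scored well above the rest). Size under these conditions: about 69,000 compounds, about 930 of them at 50% or above in at least one test.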
B: 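Primary screen of methionyl-tRNA synthetase; the read-out is not stated. Target: Methionyl-tRNA synthetase (putative), Leishmania donovani (UniProt E9BF75). The test concentration is not given. The values are filed as inhibition. Size under these conditions: about 68,000 compounds, about 24 of them at 50% or above in at least one test.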
C: 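Whole-cell assay for inhibitors of Mycobacterium tuberculosis growth, labelled Cornell in the record; the read-out is not stated. The concentration is filed as 10 mM, unlikely as a test dose, so the dose is not known. Higher means stronger inhibition (inferred from two other growth screens of the library). Size under these conditions: about 53,000 compounds, about 900 of them at 50% or above in at least one test.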

Results are percentages, as filed.
How 0% and 100% were set is not recorded. Most values in the screen are low, and negative values occur.
The compounds are a random part of those screened.

Result for [H][C@@]12CCN(S(=O)(=O)Cc3ccccc3)[C@]1([H])CCC(=O)N2C was A: -25.47%; C: -79.54%. CCOc1ncccc1CNC(=O)NC(C)Cn1cccn1 (stereo not shown) gave A: -26.73%; B: 9.538%; C: -29.58%. For Cc1ccc(-c2nc(CN3CCc4cnc(C)nc4C3)no2)cc1 the result was A: 7.068%; B: 13.86%. Result for Cc1ncc(S(C)(=O)=O)c(N2Cc3ccccc3C2)n1 was A: -12.66%; B: 1.742%; C: -19.15%. [H][C@]12CC[C@]([H])(CN(S(=O)(=O)N(C)C)C1)N(C(=O)c1cc(C(C)C)oc1C)C2 read A: -3.935%; C: -19.95%. CCN(CC)C(=O)CSc1sc2c(O)cc(=O)[nH]c2c1C(N)=O gave A: 8.603%; B: 7.932%; C: 25.25%. With Cc1cc(C)c(C(=O)N2CCC3(CCCNC3)C2)cc1C (stereo not shown) the screen gave A: 3.61%; B: 0.542%; C: -24.8%. With CC(C(=O)N1CCCN(Cc2ccc(C#N)cc2)CC1)n1ccnc1 (stereo not shown) the screen gave A: 9.429%; B: 11.22%.

With CCn1ccnc1CN(C)C1CCCN(CCCc2ccccc2)C1 (stereo not shown) the screen gave A: -15.62%; B: 5.351%; C: -7.653%. COCC(=O)N1CCO[C@H]2[C@H](OC)CC[C@@H]21 gave B: 15.15%. For [H][C@@]12CS(=O)(=O)C[C@]1([H])N(C(=O)Nc1ccccc1C)CCN2C(=O)C1CC1 the result was A: 9.428%; C: 8.247%. Cc1cccc(-n2cc(C(=O)N3CCCC(n4cccn4)C3)nn2)c1 (stereo not shown) gave A: 0.8784%; B: 14.58%. Result for COc1cc(C(=O)O)ccc1OCC(=O)NC(C)c1ccc(F)cc1 (stereo not shown) was A: 3.705%; B: 15.36%; C: 20.26%. Result for N[C@@H]1CCCN(C(=O)Cc2c[nH]c3ccccc23)[C@H]1c1ccccc1F was A: 3.266%; B: 4.984%; C: -23.47%. CCc1nc2c(s1)C(N(C)C(=O)c1cc[nH]n1)CCC2 (stereo not shown) read A: -10.56%; B: 3.495%. Result for COc1ccc(-c2cc(C(=O)N3N=C(C)CC3(O)C(F)(F)F)[nH]n2)cc1 (stereo not shown) was A: 16.58%; B: 3.399%; C: -4.762%.

Cc1nccc(CN2CCC(c3nnsc3S(C)(=O)=O)CC2)n1 read A: 3.085%; B: 14.04%; C: 1.433%. O=C(O)C(F)(F)F.O=C(O)C(F)(F)F.O=C(O)C(F)(F)F.[H][C@@]12CCC(=O)N(Cc3cccc(C)n3)[C@]1([H])CCN2Cc1cccnc1 gave A: 2.408%; C: -8.404%. CS(=O)(=O)NC[C@@H]1OC[C@H]2CN(C(=O)c3ccccc3)CC[C@H]21 gave B: 2.222%. With CCc1nccn1C1CCCN(C(=O)c2ccnc(C)n2)C1 (stereo not shown) the screen gave A: 5.681%; B: 13.58%; C: 14.21%.

Some entries from above, unchanged:

{"compound": "CCOc1ncccc1CNC(=O)NC(C)Cn1cccn1", "stereo": "stereo not shown", "A": -26.73, "B": 9.538, "C": -29.58}
{"compound": "Cc1ncc(S(C)(=O)=O)c(N2Cc3ccccc3C2)n1", "A": -12.66, "B": 1.742, "C": -19.15}